{
  "source": "PubChem BioAssay AID493014",
  "about": "(National Center for Advancing Translational Sciences (NCATS), 2011)",
  "assay": "qHTS Assay to Find Inhibitors of Chronic Active B-Cell Receptor Signaling",
  "conditions": "ABC-DLBCL IkBa-CBG/CBR reporter, luminescence ratio (green luciferase fused to IkBa over red control in TMD8 lymphoma cells), 4 h",
  "in_short": "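Compounds up to 46 uM were incubated four hours with TMD8 cells whose green CBG68 luciferase is fused to IkappaBalpha; red CBR luminescence normalised the signal, and concentration-effect curves were fitted to fusion, red and ratio data.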",
  "key": {"[1]": {"conditions": "measured here: CBR red luminescence, cell number"}, "[2]": {"conditions": "measured here: IkBa-CBG green luminescence"}},
  "note": "The list shows a part of the results. Shown are side measurements of this screen, not its main read-out; they come without a call. The list favours compounds with an active or inconclusive main result. Potencies come from curve fits of mixed quality, noted in brackets.",
  "data": [
    {"smiles": "CCC1=Nc2cc(C(=O)NCC3CCCO3)ccc2Sc2ccc(Br)cc21", "note": "(centres undefined)", "values": [
      {"measurement": "AC50", "setting": "[1]", "value": "35.5 µM [rising, single point]"},
      {"measurement": "AC50", "setting": "[2]", "value": "35.5 µM [falling, single point]"}
    ]},
    {"smiles": "CC1=CC(C)(C)Nc2ccc(OC(=O)CCN3C(=O)c4ccccc4C3=O)cc21", "values": [
      {"measurement": "AC50", "setting": "[1]", "value": "10.3 µM [falling, partial curve]"}
    ]},
    {"smiles": "CN(C)c1ccc(/C=N/NS(=O)(=O)c2ccc(Br)cc2)cc1", "values": [
      {"measurement": "AC50", "setting": "[1]", "value": "0.0891 µM [falling, full curve, poor fit]"}
    ]},
    {"smiles": "NNC(=O)c1ccc(COc2cccc3ccccc23)o1", "values": [
      {"measurement": "AC50", "setting": "[1]", "value": "2.82 µM [falling, full curve, poor fit]"}
    ]},
    {"smiles": "CN(/N=C/c1c[nH]c2ccccc12)c1cnn(-c2ccc(F)c(Cl)c2)c(=O)c1Cl", "values": [
      {"measurement": "AC50", "setting": "[1]", "value": "29.1 µM [falling, single point]"}
    ]},
    {"smiles": "Cc1sc(NC(=O)CSc2nnc(-c3ccc(F)cc3)o2)c(C#N)c1C", "values": [
      {"measurement": "AC50", "setting": "[1]", "value": "5.01 µM [rising, partial curve, poor fit]"}
    ]},
    {"smiles": "O=C(Nc1ccc(F)cc1)c1sccc1SCc1cccc(C(F)(F)F)c1", "values": [
      {"measurement": "AC50", "setting": "[1]", "value": "29.1 µM [falling, single point]"},
      {"measurement": "AC50", "setting": "[2]", "value": "25.9 µM [rising, partial curve, poor fit]"}
    ]},
    {"smiles": "O=C(CCN1C(=O)C2C3C=CC(C3)C2C1=O)NCc1cccnc1", "note": "(centres undefined)", "values": [
      {"measurement": "AC50", "setting": "[1]", "value": "3.66 µM [falling, partial curve, poor fit]"}
    ]},
    {"smiles": "O=C(CN1CCOC1=O)N1CCCC(Nc2ccc(F)c(F)c2)C1", "note": "(centres undefined)", "values": [
      {"measurement": "AC50", "setting": "[1]", "value": "35.5 µM [rising, single point]"}
    ]},
    {"smiles": "CSc1ccc(Cl)c(C(=O)Nc2ccc(N3CCOCC3)cc2)c1", "values": [
      {"measurement": "AC50", "setting": "[1]", "value": "20 µM [falling, partial curve]"}
    ]},
    {"smiles": "O=C(NNC(=O)c1ncc(Cl)c(Cl)c1Cl)c1ccc(F)cc1", "values": [
      {"measurement": "AC50", "setting": "[1]", "value": "11.2 µM [rising, single point]"},
      {"measurement": "AC50", "setting": "[2]", "value": "31.6 µM [falling, partial curve, poor fit]"}
    ]},
    {"smiles": "C/C(=N/Nc1ccc(C(=O)O)cc1)c1ccc(O)c(O)c1O", "values": [
      {"measurement": "AC50", "setting": "[1]", "value": "1.84 µM [falling, full curve]"}
    ]},
    {"smiles": "Cc1[nH]n(-c2ccc([N+](=O)[O-])cc2)c(=O)c1C=NCCN1CCN(C(=O)C(C)C)CC1", "values": [
      {"measurement": "AC50", "setting": "[1]", "value": "2.82 µM [falling, full curve]"}
    ]},
    {"smiles": "CCCCCOc1ccc(CN2CCOCC2)cc1Cl", "values": [
      {"measurement": "AC50", "setting": "[1]", "value": "0.461 µM [rising, full curve]"}
    ]},
    {"smiles": "COc1ccc(-c2[nH]ncc2CN2CCC(OCc3cccnc3)CC2)c(F)c1", "values": [
      {"measurement": "AC50", "setting": "[1]", "value": "0.447 µM [falling, partial curve, poor fit]"}
    ]},
    {"smiles": "COc1ccc(CNCC(O)(c2ccccc2)c2ccccc2)cc1", "values": [
      {"measurement": "AC50", "setting": "[1]", "value": "31.6 µM [falling, single point]"}
    ]},
    {"smiles": "COC(=O)c1cccc(NC(=O)/C=C/c2ccc3c(c2)OCO3)c1", "values": [
      {"measurement": "AC50", "setting": "[1]", "value": "4.61 µM [falling, partial curve]"}
    ]},
    {"smiles": "COc1ccc(S(=O)(=O)N2CCc3ccccc32)cc1C(=O)NC1(C)CCS(=O)(=O)C1", "note": "(centres undefined)", "values": [
      {"measurement": "AC50", "setting": "[1]", "value": "6.51 µM [rising, single point]"}
    ]},
    {"smiles": "COc1ccccc1CCNC(=O)c1ccc(OC)c(OC2CCN(C(C)C)CC2)c1", "values": [
      {"measurement": "AC50", "setting": "[1]", "value": "17.8 µM [falling, partial curve, poor fit]"}
    ]},
    {"smiles": "CC(=O)c1cc(O)c2ccccc2c1O", "values": [
      {"measurement": "AC50", "setting": "[1]", "value": "0.631 µM [falling, full curve]"}
    ]},
    {"smiles": "O=C(COc1ccc(S(=O)(=O)N2CCCC2)cc1Cl)NC1CCCC1", "values": [
      {"measurement": "AC50", "setting": "[1]", "value": "14.6 µM [falling, single point]"}
    ]},
    {"smiles": "COc1ccc(NC(=O)CCOc2ccccc2)cc1", "values": [
      {"measurement": "AC50", "setting": "[1]", "value": "8.91 µM [rising, partial curve, poor fit]"}
    ]},
    {"smiles": "O=C(O)c1cccc(S(=O)(=O)Nc2ccc(OCc3ccccc3)cc2)c1", "values": [
      {"measurement": "AC50", "setting": "[1]", "value": "35.5 µM [falling, single point]"}
    ]},
    {"smiles": "O=C1CN(C(=O)c2ccccc2)C(c2ccccc2)c2cc(Cl)ccc2N1", "note": "(centres undefined)", "values": [
      {"measurement": "AC50", "setting": "[1]", "value": "11.2 µM [falling, partial curve, poor fit]"}
    ]},
    {"smiles": "C=CCSc1nsc(NC(=O)Nc2cccc(C(C)=O)c2)n1", "values": [
      {"measurement": "AC50", "setting": "[1]", "value": "35.5 µM [falling, single point]"}
    ]},
    {"smiles": "CC1CC(C)CN(C(=O)c2cc3cc(Br)cc(Br)c3o2)C1", "note": "(centres undefined)", "values": [
      {"measurement": "AC50", "setting": "[1]", "value": "25.1 µM [rising, single point]"}
    ]},
    {"smiles": "COc1ccc2c(c1)OC(c1ccccc1)(C(F)(F)F)NC2=O", "note": "(centres undefined)", "values": [
      {"measurement": "AC50", "setting": "[1]", "value": "32.6 µM [falling, partial curve, poor fit]"}
    ]},
    {"smiles": "O=C(Nc1nccs1)c1cc2cc(Cl)ccc2oc1=O", "values": [
      {"measurement": "AC50", "setting": "[1]", "value": "1 µM [rising, full curve]"}
    ]},
    {"smiles": "Cc1ccccc1S(=O)(=O)Nc1nc2ccccc2nc1NCCO", "values": [
      {"measurement": "AC50", "setting": "[1]", "value": "2.59 µM [falling, partial curve, poor fit]"}
    ]},
    {"smiles": "COc1cc(/C=C/c2ccc3cccc(OC)c3n2)c(O)c([N+](=O)[O-])c1", "values": [
      {"measurement": "AC50", "setting": "[1]", "value": "0.501 µM [falling, full curve]"}
    ]},
    {"smiles": "CC(=O)Nc1ccc(NC(=O)Cc2ccc(F)cc2)cc1", "values": [
      {"measurement": "AC50", "setting": "[1]", "value": "0.794 µM [rising, full curve]"}
    ]},
    {"smiles": "CCn1nnnc1Oc1ccc(Cl)cc1", "values": [
      {"measurement": "AC50", "setting": "[1]", "value": "29.1 µM [rising, single point]"}
    ]},
    {"smiles": "Cc1cc(C)c(NC(=O)CSc2nc3ccc(NC(=O)CSc4nnnn4-c4ccccc4)cc3s2)c(C)c1", "values": [
      {"measurement": "AC50", "setting": "[1]", "value": "13 µM [rising, partial curve, poor fit]"}
    ]},
    {"smiles": "COc1ccc(C(=O)NCCc2c[nH]c3ccccc23)cc1[N+](=O)[O-]", "values": [
      {"measurement": "AC50", "setting": "[1]", "value": "6.31 µM [falling, partial curve]"}
    ]},
    {"smiles": "N/C(=N\\OC(=O)c1cccc(Br)c1)c1ccccc1", "values": [
      {"measurement": "AC50", "setting": "[1]", "value": "1.41 µM [rising, full curve, poor fit]"}
    ]},
    {"smiles": "Cc1cc(C(=O)CSc2nnc(-c3ccco3)o2)c(C)n1C", "values": [
      {"measurement": "AC50", "setting": "[1]", "value": "4.61 µM [rising, full curve, poor fit]"}
    ]},
    {"smiles": "O=C(CN1C(=O)c2ccccc2C1=O)NN1C(=O)c2ccccc2C1=O", "values": [
      {"measurement": "AC50", "setting": "[1]", "value": "6.31 µM [falling, partial curve, poor fit]"}
    ]},
    {"smiles": "COc1ccccc1C(=O)NC(=O)COC(=O)C1(C)CC1(Cl)Cl", "note": "(centres undefined)", "values": [
      {"measurement": "AC50", "setting": "[1]", "value": "0.461 µM [rising, full curve, poor fit]"}
    ]},
    {"smiles": "CCCSc1nc(N2CCCC2)c2c(c1C#N)CC(C)(C)OC2", "values": [
      {"measurement": "AC50", "setting": "[1]", "value": "12.6 µM [rising, single point]"}
    ]},
    {"smiles": "O=S(=O)(c1ccccc1Br)N(Cc1ccccc1)CC(O)COCc1ccccc1", "note": "(centres undefined)", "values": [
      {"measurement": "AC50", "setting": "[1]", "value": "23.1 µM [falling, partial curve]"}
    ]},
    {"smiles": "O=C(NC1CCCCCCC1)C1CCN(c2nc3ccccc3o2)CC1", "values": [
      {"measurement": "AC50", "setting": "[1]", "value": "32.6 µM [rising, single point]"}
    ]}
  ]
}
